Data taken from PubChem BioAssay AID662 (National Center for Advancing Translational Sciences (NCATS), 2007).
This is one part of the list. Shown are side measurements of this screen, not its main read-out; they come without a call. The list favours compounds with an active or inconclusive main result. Words in brackets tell the shape of the fitted curve; partial curves, single points and poor fits give uncertain potencies.

test: Cell signaling CRE-BLA (Fsk stim); settings: CHO CRE-bla reporter (cAMP response element driving beta-lactamase), forskolin EC10, beta-lactamase ratio; measured here: 460 nm blue channel
Description: NIH Molecular Libraries Screening Centers Network [MLSCN]
NIH Chemical Genomics Center [NCGC]
Assay Provider: Marshall W. Nirenberg, U.S. National heart lung & blood institute
Memories persist for different lengths of time, from seconds or minutes to a lifetime. There are two kinds of memory: short-term memory (STM) and long-term memory (LTM). STM lasts for minutes to hours, which maybe mediated by modifications of molecules involved in synaptic functions. LTM lasts for days or longer, and may be due to the formation of new synapses or restructuring of existing synapses. LTM, but not STM, requires gene transcription and synthesis of proteins. CREB (cyclic-AMP Responsive Element Binding Protein) is one of the candidates plays an important role for enhancement of some types of LTM. CREB, a family of transcription factors, regulates the transcription of genes containing cAMP Responsive Elements (CRE). CRE is a nucleotide sequence often found in the promoter regions of genes that are binding sites for CREB.
Using a beta-lactamase reporter-gene under control of cAMP responsive element, a cell-based assay [CellSensor(TM) CRE-bla CHO developed by Invitrogen Corp.] was used to measure forskolin-induced signaling. Library compounds were measured for their ability to modulate positively or negatively the action of EC10 NKH 477, a water soluble forskolin, on reporter gene activity. Compounds were screened in a titration series in 1536-well format. Positive and negative modulators were identified based on the AC50 values derived from the screening data.
NCGC Assay Protocol Summary
2000 cells/5uL in Opti-MEM medium containing 0.5% dialyzed FBS, 0.1 mM NEAA, 1 mM sodium pyruvate and 10 mM HEPES was dispensed into 1536-well plates and cells were cultured at 37 degrees Celsius overnight. […] And then the plates were incubated at 37 degrees Celsius for 3 hours. 1 uL of CCF4-dye mixture was added to each well. After incubated at room temperature for 2 hours the plates were measured on an EnVision plate reader at Excitation 405nm, Emission1=460nm and Emission 2=530nm. The %Activity was determined from the ratio of 460nm/530nm.
Keywords: NIH Roadmap, MLSCN, MLSMR, qHTS, NCGC, CRE, beta-lactamase reporter-gene assay.

| Compound | AC50 |
| --- | --- |
| Cc1cc(-n2nc(C)cc2C)nc(NS(=O)(=O)c2ccccc2)n1 | 15.8 µM [rising, partial curve] |
| O=C(CNS(=O)(=O)c1ccc(Br)s1)N1CCCC1 | 0.398 µM [falling, partial curve] |
| CCOC(=O)c1cc2nc(Nc3ccc(OC)cc3)sc2s1 | 25.1 µM [rising, single point] |
| N#CCCn1c2ccccc2c2nc3ccccc3nc21 | 2 µM [rising, full curve] |
| CCOc1ccccc1Cn1c(=O)oc2ccc(C)cc21 | 0.00398 µM [falling, full curve, poor fit] |
| CC1CN(c2nc3ccccc3nc2C(C#N)C(=O)NC2CCCCC2)CC(C)O1 (stereo not given) | 15.8 µM [rising, partial curve, poor fit] |
| c1ccc2[nH]c(CSc3nnc(-c4ccncc4)o3)nc2c1 | 1.26 µM [rising, full curve] |
| Cc1cc(C)n2nc(C(=O)Nc3ccccc3N3CCOCC3)nc2n1 | 5.01 µM [falling, single point] |
| Oc1ccc(-c2nc(-c3ccc(O)c(O)c3)cs2)cc1 | 3.98 µM [falling, partial curve] |
| CCOc1ccccc1C1C(C(=O)OC)=CN(C)C=C1C(=O)OC | 10 µM [rising, partial curve] |
| C=CCN1C(=O)C2C(C(=O)NC)C3(C)C=CC2(O3)C1C(=O)NCc1ccc(OC)cc1 (stereo not given) | 25.1 µM [falling, single point] |
| O=S(=O)(NC1=NCCCCCC1)c1cccs1 | 5.01 µM [falling, single point] |
| COc1ccc(NC(=O)CSc2nnc(Cc3cccn3C)n2-c2ccc(OC)cc2)cc1 | 7.94 µM [falling, partial curve] |
| CCCOC(=O)Nc1sc2c(c1C(=O)OCC)CCC2 | 10 µM [rising, single point] |
| COc1cc(-c2noc(-c3cccs3)n2)cc(OC)c1OC | 10 µM [rising, single point] |
| CCOC(=O)C1CCN(C(=O)CN(Cc2ccc(Cl)cc2)S(C)(=O)=O)CC1 | 10 µM [rising, partial curve] |
| Cc1cccn2c(=O)c3cc(C(=O)NCc4ccco4)c(=N)n(C(C)C)c3nc12 | 12.6 µM [rising, partial curve] |
| CCCC(=O)Nc1ccc2oc(-c3cccnc3)nc2c1 | 15.8 µM [rising, single point] |
| COc1ccc2nc(N3CCC(O)CC3)c(C#N)cc2c1 | 12.6 µM [rising, single point] |
| COc1ccc2c(c1)c(=O)cc(C)n2CC(=O)NCc1ccco1 | 25.1 µM [rising, single point] |
| Cc1occc1-c1nnc(SCc2nnc(-c3ccc(Cl)cc3)o2)n1C | 5.01 µM [falling, single point] |
| Cc1cc(Cl)cc(Cl)c1OCC(=O)NCc1ccco1 | 0.126 µM [falling, full curve] |
| Cc1nc2ccc(F)cc2cc1C(=O)NC(C)C | 3.16 µM [falling, single point] |

| Compound | AC50 |
| --- | --- |
| CN(C)S(=O)(=O)N1CCC(Cc2ccccc2)CC1 | 0.631 µM [rising, partial curve] |
| Cc1c(C(=O)NCc2ccccn2)sc2nc(-c3ccc(F)cc3)cn12 | 15.8 µM [rising, partial curve] |
| N#CC(C(=O)OCc1ccccc1)c1nc2ccccc2nc1N1CCOCC1 (stereo not given) | 12.6 µM [rising, partial curve] |
| O=C(Nc1ccc2c(c1)OCO2)C1CC(c2c(F)cccc2Cl)=NO1 (stereo not given) | 20 µM [falling, partial curve] |
| Cc1ccc(S(=O)(=O)NC2=NCN(C3CCCCC3)CN2)cc1 | 1 µM [falling, full curve] |
| CC(C)(C)OC(=O)N1CCN(c2ccc(NC(=O)Cn3nnc(-c4ccccc4)n3)cc2)CC1 | 10 µM [falling, single point] |
| O=C(O)CCC(=O)CCC(=O)c1ccc(Cl)cc1 | 0.398 µM [rising, partial curve] |
| CCOc1ccc(-c2nnn(CC(=O)Nc3cc(OC)ccc3OC)n2)cc1OCC | 3.16 µM [rising, single point] |
| CCOc1ccc(CCNC(=O)CN(C)S(=O)(=O)c2cccc3nsnc23)cc1OCC | 0.2 µM [rising, partial curve] |
| c1cncc(-c2nc(NCc3ccco3)c3ccccc3n2)c1 | 25.1 µM [falling, single point] |
| NCCCC(=O)O | 0.00794 µM [rising, full curve, poor fit] |
| O=C(CN1C(=O)CCC1=O)Nc1ccc(Br)cc1 | 5.01 µM [falling, single point] |
| O=C(O)CC[P+](c1ccccc1)(c1ccccc1)c1ccccc1 | 0.631 µM [rising, single point] |
| c1ccc(Cc2nn3c(C4COc5ccccc5O4)nnc3s2)cc1 (stereo not given) | 3.16 µM [falling, single point] |
| COc1ccc(-c2nnc(COc3ccc4ccccc4c3)o2)cc1OC | 0.631 µM [rising, full curve] |
| Cc1nnc2ccc(N3CCN(c4ccccn4)CC3)nn12 | 7.94 µM [rising, partial curve] |
| CN(C)c1ncc2nc(-c3ccc(F)cc3)c(=O)n(Cc3ccc(F)cc3)c2n1 | 12.6 µM [rising, partial curve] |
| c1ccc(-c2nnc3sc(-c4cc5ccccc5o4)nn23)cc1 | 12.6 µM [rising, partial curve] |
| CCn1nc(C(=O)OCC(=O)c2ccc3c(c2)OCCO3)c2ccccc2c1=O | 3.16 µM [falling, partial curve] |
| Cc1[nH]n(-c2ccccc2)c(=O)c1-c1ccccc1 | 12.6 µM [rising, single point] |
| CCOC(=O)C1CCN(C2CC(=O)N(c3ccc(OCC)cc3)C2=O)CC1 (stereo not given) | 0.00501 µM [falling, full curve, poor fit] |
| CCc1nc2ccccc2n1CC(=O)N1CCN(S(=O)(=O)c2cccc(C(F)(F)F)c2)CC1 | 5.01 µM [rising, single point] |

Pulled by structure from the list above (4):

| Compound | AC50 |
| --- | --- |
| c1ccc(-c2nnc3sc(-c4cc5ccccc5o4)nn23)cc1 | 12.6 µM [rising, partial curve] |
| N#CCCn1c2ccccc2c2nc3ccccc3nc21 | 2 µM [rising, full curve] |
| Cc1[nH]n(-c2ccccc2)c(=O)c1-c1ccccc1 | 12.6 µM [rising, single point] |
| CCOC(=O)C1CCN(C2CC(=O)N(c3ccc(OCC)cc3)C2=O)CC1 (stereo not given) | 0.00501 µM [falling, full curve, poor fit] |
